Laboratory results published in the supplement of paper PMC4604168 (melanoma cell lines).
The other results are listed elsewhere or left out. Many values rest on one well or one pass, so single values are uncertain.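 Imaging used 1,536-well plates; nuclei positive for cleaved PARP by antibody were divided by total DNA-stained nuclei to yield the apoptosis fraction. Doses for screening kept most cells viable, and cell lines differ markedly in resting and induced cleaved-PARP levels.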

Experiments:
Assay in all cases: cleaved PARP positive nuclei fraction relative to DMSO control; melanoma cells; higher = more apoptosis
Conditions in all cases: library dose: low library concentration; 72 h
501Mel = test system: 501Mel
A101D = test system: A101D
A2058 = test system: A2058
A375 = test system: A375
C32 = test system: C32
CBRC013 = test system: CBRC013 (line from a melanoma biopsy)
CBRC014 = test system: CBRC014 (line from a melanoma biopsy)
CBRC016 = test system: CBRC016 (line from a melanoma biopsy)
CBRC017 = test system: CBRC017 (line from a melanoma biopsy)

SMILES | cleaved PARP positive nuclei fraction (501Mel) | cleaved PARP positive nuclei fraction (A101D) | cleaved PARP positive nuclei fraction (A2058) | cleaved PARP positive nuclei fraction (A375) | cleaved PARP positive nuclei fraction (C32) | cleaved PARP positive nuclei fraction (CBRC013) | cleaved PARP positive nuclei fraction (CBRC014) | cleaved PARP positive nuclei fraction (CBRC016) | cleaved PARP positive nuclei fraction (CBRC017)
CN(NC(=O)CC(=O)NN(C)C(=S)c1ccccc1)C(=S)c1ccccc1 + O=c1cc(-c2cccc3c2Sc2ccccc2S3)oc(N2CCOCC2)c1 [KU55933] (first compound 0.006 µM, partner dose 1 µM) | 389% | 265% | 202% | 1490% | 139% | 76.1% | 447% | 163% | 141%
CN(C)S(=O)(=O)c1ccc2c(c1)/C(=C/c1cc3c([nH]1)CCCC3)C(=O)N2 + CCc1ccc(CCOc2ccc(CC3SC(=O)NC3=O)cc2)nc1 [pioglitazone] (first compound 0.4 µM, partner dose 2 µM) | 51.6% | 166% | 97.5% | 172% | 50.6% | 49.9% | 113% | 176% | 77.5%
COc1ccc(COc2ccc(Cc3cnc(N)nc3N)cc2OC)cc1 + Oc1nc(-c2ccc(C(F)(F)F)cc2)nc2c1CSCC2 [XAV939] (first compound 1 µM, partner dose 2 µM) | 151% | 317% | 166% | 130% | 63.9% | 40% | 106% | 76.2% | 86.1%
CCc1ccc(CCOc2ccc(CC3SC(=O)NC3=O)cc2)nc1 (stereo not given) [pioglitazone] + COc1cc2ncnc(Nc3ccc(Oc4ccccc4)cc3)c2cc1OC [SrcI1] (first compound 2 µM, partner dose 2 µM) | 74.6% | 125% | 145% | 167% | 40.2% | 26.5% | 79.3% | 111% | 75%
COc1ccc2c(c1)CCC1C2CCC2(C)C(NCCCCCCN3C(=O)C=CC3=O)CCC12 (stereo not given) + CCN(CC)CCCCNc1ncc2cc(-c3cc(OC)cc(OC)c3)c(NC(=O)NC(C)(C)C)nc2n1 [PD173074] (first compound 0.4 µM, partner dose 0.1 µM) | 86.2% | 159% | 131% | 50.4% | 95.9% | 159% | 151% | 108% | 94.5%
O=C(O)c1ccc(-c2c[nH]c3ncc(-c4ccccc4)cc23)cc1C1CCCC1 + COc1cc(N2CCC(N3CCN(C)CC3)CC2)ccc1Nc1ncc(Cl)c(Nc2ccccc2S(=O)(=O)C(C)C)n1 [NVP-TAE684] (first compound 0.16 µM, partner dose 0.08 µM) | 158% | 38.3% | 117% | 68.8% | 96.9% | 209% | 115% | 95.9% | 92.2%
CN(NC(=O)CC(=O)NN(C)C(=S)c1ccccc1)C(=S)c1ccccc1 + O=C(O)C(=O)Nc1sc2c(c1C(=O)O)CCNC2 [TCS401] (first compound 0.006 µM, partner dose 1.66667 µM) | 134% | 88.5% | 312% | 722% | 118% | 175% | 394% | 55.7% | 146%
Cc1cc([N+](=O)[O-])ccc1NS(=O)(=O)c1cc(Cl)ccc1Cl + O=c1cc(-c2cccc3c2Sc2ccccc2S3)oc(N2CCOCC2)c1 [KU55933] (first compound 1 µM, partner dose 1 µM) | 115% | 136% | 24% | 179% | 138% | 71.5% | 394% | 2730% | 700%
CN(C)S(=O)(=O)c1ccc2c(c1)/C(=C/c1cc3c([nH]1)CCCC3)C(=O)N2 + COC(=O)c1sccc1S(=O)(=O)Nc1ccc(Nc2ccccc2)cc1OC [GSK0660] (first compound 0.4 µM, partner dose 1 µM) | 166% | 131% | 91.6% | 185% | 63.5% | 24.7% | 104% | 133% | 100%
O=C(O)c1ccc(-c2c[nH]c3ncc(-c4ccccc4)cc23)cc1C1CCCC1 + Cc1cc([N+](=O)[O-])ccc1NS(=O)(=O)c1cc(Cl)ccc1Cl [FH535] (first compound 0.16 µM, partner dose 1 µM) | 40.1% | 213% | 44.9% | 256% | 84.4% | 194% | 171% | 1550% | 357%
NCC(=O)Nc1ccc(-n2nc(C(F)(F)F)cc2-c2ccc3c(ccc4ccccc43)c2)cc1 + Oc1cc(-c2nc(-c3ccccc3)[nH]c2-c2ccncc2)ccc1Cl [L779450] (first compound 1 µM, partner dose 0.2 µM) | 80.3% | 99.3% | 101% | 2200% | 104% | 130% | 98% | 36% | 97.4%
O=C(O)c1ccc(-c2c[nH]c3ncc(-c4ccccc4)cc23)cc1C1CCCC1 + COc1cc2ncnc(Nc3ccc(Oc4ccccc4)cc3)c2cc1OC [SrcI1] (first compound 0.16 µM, partner dose 2 µM) | 58.3% | 122% | 130% | 187% | 150% | 243% | 117% | 196% | 89.1%
Oc1cc(-c2nc(-c3ccccc3)[nH]c2-c2ccncc2)ccc1Cl + CCCCCCCCCCCC1=C(O)C(=O)C=C(O)C1=O [Embelin] (first compound 0.2 µM, partner dose 1.2 µM) | 153% | 55.9% | 57.8% | 84.5% | 34.1% | 106% | 89.2% | 134% | 76.6%
COc1ccc(COc2ccc(Cc3cnc(N)nc3N)cc2OC)cc1 + O=c1cc(-c2cccc3c2Sc2ccccc2S3)oc(N2CCOCC2)c1 [KU55933] (first compound 1 µM, partner dose 1 µM) | 81.9% | 55.5% | 49.6% | 137% | 46.8% | 55.2% | 95.1% | 114% | 87%
CN(NC(=O)CC(=O)NN(C)C(=S)c1ccccc1)C(=S)c1ccccc1 + COc1ccc2c(c1)CCC1C2CCC2(C)C(NCCCCCCN3C(=O)C=CC3=O)CCC12 [U73122] (first compound 0.006 µM, partner dose 0.4 µM) | 216% | 128% | 44% | 93.6% | 73.1% | 248% | 127% | 184% | 106%
COc1ccc(COc2ccc(Cc3cnc(N)nc3N)cc2OC)cc1 + Cc1cc([N+](=O)[O-])ccc1NS(=O)(=O)c1cc(Cl)ccc1Cl [FH535] (first compound 1 µM, partner dose 1 µM) | 34.9% | 60.1% | 138% | 53.5% | 323% | 44.7% | 242% | 257% | 416%
CN(NC(=O)CC(=O)NN(C)C(=S)c1ccccc1)C(=S)c1ccccc1 + Cc1cc([N+](=O)[O-])ccc1NS(=O)(=O)c1cc(Cl)ccc1Cl [FH535] (first compound 0.006 µM, partner dose 1 µM) | 606% | 167% | 349% | 5940% | 168% | 532% | 1070% | 392% | 2710%
COc1ccc(-c2ccc3c(N4CCOCC4)nc(N4C[C@@H](C)O[C@@H](C)C4)nc3n2)cc1CO + COc1cc2ncnc(Nc3ccc(Oc4ccccc4)cc3)c2cc1OC [SrcI1] (first compound 0.02 µM, partner dose 2 µM) | 63.4% | 199% | 42% | 153% | 69.1% | 127% | 102% | 29.4% | 114%
O=S(=O)(c1ccccc1)N(CC(F)(F)F)c1ccc(C(O)(C(F)(F)F)C(F)(F)F)cc1 + CC(C)CCN1c2nc(Nc3cc(F)c(O)c(F)c3)ncc2N(C)C(=O)C1C [BID1870] (first compound 1.4 µM, partner dose 0.2 µM) | 140% | 63.3% | 39.5% | 66.7% | 63% | 57.9% | 103% | 74.3% | 92.5%
NCC(=O)Nc1ccc(-n2nc(C(F)(F)F)cc2-c2ccc3c(ccc4ccccc43)c2)cc1 + Cn1cc(/C=C2\C(=O)Nc3cccnc32)c2ccccc21 [GW441756] (first compound 1 µM, partner dose 0.4 µM) | 393% | 169% | 41.1% | 2800% | 141% | 341% | 85.6% | 22.7% | 91.3%
Cc1cc([N+](=O)[O-])ccc1NS(=O)(=O)c1cc(Cl)ccc1Cl + CCCCCCCCCCCC1=C(O)C(=O)C=C(O)C1=O [Embelin] (first compound 1 µM, partner dose 1.2 µM) | 76.9% | 49.8% | 143% | 199% | 256% | 86% | 156% | 1310% | 1040%
COc1ccc2c(c1)CCC1C2CCC2(C)C(NCCCCCCN3C(=O)C=CC3=O)CCC12 (stereo not given) + Cc1cc([N+](=O)[O-])ccc1NS(=O)(=O)c1cc(Cl)ccc1Cl [FH535] (first compound 0.4 µM, partner dose 1 µM) | 59.1% | 162% | 146% | 342% | 110% | 80.4% | 227% | 1830% | 238%
N#Cc1c(O)c2c(-c3ccc(-c4ccccc4O)cc3)csc2[nH]c1=O + Oc1nc(-c2ccc(C(F)(F)F)cc2)nc2c1CSCC2 [XAV939] (first compound 2 µM, partner dose 2 µM) | 81.9% | 39.8% | 220% | 114% | 136% | 169% | 78.5% | 63.1% | 91.6%
O=C(O)C(=O)Nc1sc2c(c1C(=O)O)CCNC2 + CCCCCCCCCCCC1=C(O)C(=O)C=C(O)C1=O [Embelin] (first compound 1.66667 µM, partner dose 1.2 µM) | 83.2% | 134% | 190% | 139% | 85.8% | 45.2% | 69.2% | 77.6% | 55.8%
COc1cc2c(Oc3ccc4[nH]c(C)cc4c3F)ncnc2cc1OCCCN1CCCC1 [cediranib] + COC(=O)c1sccc1S(=O)(=O)Nc1ccc(Nc2ccccc2)cc1OC [GSK0660] (first compound 0.4 µM, partner dose 1 µM) | 73.3% | 61.3% | 29% | 47.5% | 139% | 136% | 81.2% | 52.9% | 32.5%

Looked up above:
For cleaved PARP positive nuclei fraction (CBRC014), Oc1cc(-c2nc(-c3ccccc3)[nH]c2-c2ccncc2)ccc1Cl + CCCCCCCCCCCC1=C(O)C(=O)C=C(O)C1=O [Embelin] (first compound 0.2 µM, partner dose 1.2 µM) is entered as 89.2%
For cleaved PARP positive nuclei fraction (A2058), COc1cc2c(Oc3ccc4[nH]c(C)cc4c3F)ncnc2cc1OCCCN1CCCC1 [cediranib] + COC(=O)c1sccc1S(=O)(=O)Nc1ccc(Nc2ccccc2)cc1OC [GSK0660] (first compound 0.4 µM, partner dose 1 µM) is entered as 29%
